# Data from PubChem BioAssay AID540276 (National Center for Advancing Translational Sciences (NCATS), 2011).
# Hit rate of the full screen: of about 300,000 compounds, about 5,400 (1.8%) were called active. This list was built around the results that the source calls inconclusive (neither active nor inactive); the mix of calls is not that of the screen. Calls follow the shape of the full dose curve; tested in HEK293 cells. Potencies beside an inconclusive call are fits to weak or partial responses and may not hold up.
# Assay: qHTS for inhibitors of binding or entry into cells for Marburg Virus
# Conditions: Marburg virus pseudotyped entry inhibition, cell reporter; activity change, negative = inhibition: at 37.8 µM (top of the series) unless noted
# % is scaled to controls: 0 for no effect and ±100 for the full control effect; potency is read from the fitted curve at half-maximal effect.
SMILES,Potency,"activity change, negative = inhibition"
CCN(CC)CCCCN1c2ccccc2Sc2ccccc21,active: 11.2 µM,–
Cc1ccnc(SCC(=O)Nc2c(C)n(C)n(-c3ccccc3)c2=O)n1,–,inactive: 29.8%
CCOc1ccc(N2C(=O)CN(C)C2=S)cc1,"inconclusive: 0.501 µM [inhibitor, partial curve, poor fit]",–
NC(=O)CSc1cn(Cc2ccccc2)c2ccccc12,"inconclusive: 35.5 µM [inhibitor, single point]",–
Cc1nc2ccccn2c1-c1ccnc(SCc2ccc(Cl)cc2)n1,–,inactive: -21.2% [at 46.1 µM]
Cc1cc(=O)n2c3ccccc3n(CC(O)CN3CCCCC3)c2c1C#N (stereo unspecified),"inconclusive: 29.1 µM [inhibitor, single point]",–
CCC1=NN(C(=O)CCc2ccc3c(c2)OCO3)C(O)(C(F)(F)F)C1 (stereo unspecified),"inconclusive: 11.2 µM [inhibitor, single point]",–
CC1(C)Cc2c(ccc3ccccc23)C(=O)N1,–,inactive: 1.59%
COc1cc(/C=C/C(=O)OCC(=O)NCCN2C(=O)CSC2=O)ccc1OC(F)F,"inconclusive: 6.31 µM [inhibitor, partial curve, poor fit]",–
O=C(NCc1ccc(Cl)cc1)N1CCc2ccccc2C1,"inconclusive: 22.4 µM [inhibitor, single point]",–
CCN(CC)c1ccc(NC(=O)c2cccc(OC)c2)c(C)c1,"inconclusive: 16.4 µM [inhibitor, single point]",–
COc1ccc(C)cc1NC(=O)NC1CCCc2ccccc21 (stereo unspecified),–,inactive: 2.12% [at 46.1 µM]
CC(C)(C)NC(=O)C(c1c[nH]c2ccccc12)N(C(=O)Cn1nnc(-c2ccc(Cl)cc2)n1)c1ccccc1F (stereo unspecified),"inconclusive: 7.31 µM [inhibitor, partial curve, poor fit]",–
O=c1cc(O)c2ccccc2[nH]1,–,inactive: -0.237%
O=C(CSc1nnc(NC(=O)c2c(F)cccc2F)s1)Nc1ccc(F)cc1,–,inactive: 8.78%
CCN1C/C(=C/c2ccc(N3CCOCC3)cc2)C(=O)/C(=C/c2ccc(N3CCOCC3)cc2)C1,"inconclusive: 20 µM [inhibitor, partial curve, poor fit]",–
CCOC(=O)c1c(NC(=O)CNC2CCCCC2)sc(C)c1C,"inconclusive: 7.94 µM [inhibitor, partial curve, poor fit]",–
Cc1cc(/C=C(\C#N)C(=O)O)c(C)n1C1CC1,–,inactive: 14.9%
COc1cc(OC)cc(C(=O)NC(=S)Nc2cc3oc4ccccc4c3cc2OC)c1,"inconclusive: 18.3 µM [inhibitor, single point]",–
CCn1c(SCc2nc3ccccc3c(=O)[nH]2)nnc1C(C)NC(=O)c1ccccc1 (stereo unspecified),–,inactive: 6.75% [at 46.1 µM]
CN1CCN(c2ccc(NC(=O)c3ccccc3)cc2)CC1,"inconclusive: 0.562 µM [activator, full curve, poor fit]",–
O=[N+]([O-])c1ccc(Cl)c(CN2CCC(O)CC2)c1,"inconclusive: 6.31 µM [activator, single point]",–
CC(=O)N1Cc2ccccc2CC1C(=O)N1CCN(c2ccccc2)CC1 (stereo unspecified),–,inactive: 9.43% [at 46.1 µM]
COc1ccc(CNCC(O)(c2ccccc2)c2ccc(Cl)cc2)cc1 (stereo unspecified),"inconclusive: 29.1 µM [inhibitor, single point]",–

SMILES,Potency,"activity change, negative = inhibition"
Cc1[nH]c2ccccc2c1N=Nc1cc(C(=O)O)cc(C(=O)O)c1,–,inactive: 2.38% [at 46.1 µM]
CN1CCN(S(=O)(=O)c2ccc(NC(=O)c3cccs3)cc2)CC1,–,inactive: 0.44%
CCOc1ccc(OCCOc2ncnc3ccccc23)cc1,–,inactive: 6.32%
Cc1cccc(C(=O)NNS(=O)(=O)c2ccc(F)cc2)c1O,–,inactive: 14%
O=C(Oc1ccc(-c2nnco2)cc1)c1ccco1,"inconclusive: 3.16 µM [inhibitor, partial curve, poor fit]",–
COc1ccc(Cl)cc1NC(=O)c1ccoc1C,–,inactive: 1.38%
CC(C)Oc1ccc(S(=O)(=O)N(C(C)C)C(C)C)cn1,"inconclusive: 0.447 µM [activator, partial curve, poor fit]",–
O=C(N/N=C/c1c(O)n(CCC2=CCCCC2)c(=O)[nH]c1=O)c1ccccc1,–,inactive: -14.9%
COc1cccc(/C=C(/C(=O)OCC(=O)NCC2CCCO2)c2ccccc2)c1 (stereo unspecified),–,inactive: -66.3% [at 46.1 µM]
O=C(c1ccc(N2CCCCC2)c([N+](=O)[O-])c1)N1CCN(S(=O)(=O)c2ccccc2)CC1,–,inactive: -3.13% [at 46.1 µM]
Cc1ccc(C(=O)NCC(c2ccco2)N2CCc3ccccc32)cc1C (stereo unspecified),"inconclusive: 11.2 µM [inhibitor, partial curve, poor fit]",–
Cc1cc(C)cc(CN2C(=O)NC3(CCCCCC3)C2=O)c1,"inconclusive: 35.5 µM [inhibitor, single point]",–
CN1C(=O)CSc2ccc(NC(=O)N3CCN(c4ccccc4)CC3)cc21,–,inactive: -11.5% [at 46.1 µM]
Cc1c(Cl)c([N+](=O)[O-])nn1CCCC(=O)N(Cc1ccccc1)Cc1ccccc1,"inconclusive: 3.66 µM [inhibitor, full curve]",–
OC(CNCc1ccc(Cl)cc1)(c1ccccc1)c1ccc(F)cc1 (stereo unspecified),"inconclusive: 14.1 µM [inhibitor, partial curve, poor fit]",–
CCOC(=O)c1ccccc1N/C=C/C(=O)c1cccs1,"inconclusive: 35.5 µM [activator, single point]",–
O=C(CSc1nc2ccccc2o1)Nc1nccs1,"inconclusive: 7.94 µM [activator, partial curve, poor fit]",–
COc1ccccc1NC(=O)N(Cc1ccco1)Cc1cc2c(C)ccc(C)c2[nH]c1=O,inactive,–
Cc1ccccc1CN1CCN(C2CCC2)CC1CCO (stereo unspecified),"inconclusive: 2.82 µM [inhibitor, full curve]",–
CC(C)(C)C1CCc2onc(C(=O)Nc3sc4c(c3C(N)=O)CCCC4)c2C1 (stereo unspecified),–,inactive: -33.2% [at 46.1 µM]
N/C(Cc1ccc([N+](=O)[O-])cc1)=N\OC(=O)COc1ccccc1Cl,–,inactive: 21.2%
CCOC(=O)c1sc(=NC(=O)/C=C/c2cccs2)n(C)c1C,"inconclusive: 0.316 µM [activator, full curve, poor fit]",–
COc1ccc(CN2CCCC2C(=O)Nc2ccc(OC)c(OC)c2)cc1OC (stereo unspecified),"inconclusive: 9.2 µM [activator, partial curve]",–
COc1cc2c(cc1OC)C(c1ccccc1)N(C(=O)CCl)CC2 (stereo unspecified),"inconclusive: 11.2 µM [inhibitor, partial curve]",–

# Quoted at random: 6 records from the list.
SMILES,Potency,"activity change, negative = inhibition"
COc1ccc(Cl)cc1NC(=O)c1ccoc1C,–,inactive: 1.38%
O=C(c1ccc(N2CCCCC2)c([N+](=O)[O-])c1)N1CCN(S(=O)(=O)c2ccccc2)CC1,–,inactive: -3.13% [at 46.1 µM]
CCOc1ccc(OCCOc2ncnc3ccccc23)cc1,–,inactive: 6.32%
CCOC(=O)c1sc(=NC(=O)/C=C/c2cccs2)n(C)c1C,"inconclusive: 0.316 µM [activator, full curve, poor fit]",–
CN1C(=O)CSc2ccc(NC(=O)N3CCN(c4ccccc4)CC3)cc21,–,inactive: -11.5% [at 46.1 µM]
COc1cccc(/C=C(/C(=O)OCC(=O)NCC2CCCO2)c2ccccc2)c1 (stereo unspecified),–,inactive: -66.3% [at 46.1 µM]

# Next part.

SMILES,Potency,"activity change, negative = inhibition"
CN(CCO)c1cc(N(C)CCO)c([N+](=O)[O-])cc1[N+](=O)[O-],–,inactive: 7.65% [at 46.1 µM]
COCCn1cnc2c(c1=O)c1nc3ccccc3nc1n2/N=C/c1ccc(OC)c(OC)c1,"inconclusive: 2.51 µM [inhibitor, single point]",–
Cc1cc(C)c2cc3c(N)c(C(=O)N4CCOCC4)sc3nc2c1,–,inactive: -17.6% [at 46.1 µM]
COc1cc(SC#N)ccc1N=Cc1c(C)[nH]n(-c2ccc(Cl)cc2)c1=O,"inconclusive: 35.5 µM [activator, single point]",–
CCOc1ccc(C2c3c(-c4ccccc4O)n[nH]c3C(=O)N2Cc2ccncc2)cc1 (stereo unspecified),"inconclusive: 12.6 µM [inhibitor, single point]",–
CCc1ccc(C(=O)c2cn(CC(=O)Nc3ccc(F)cc3)c3cc4c(cc3c2=O)OCO4)cc1,"inconclusive: 35.5 µM [inhibitor, single point]",–
Cc1ncoc1C(=O)Nc1ncc([N+](=O)[O-])s1,"inconclusive: 3.98 µM [inhibitor, full curve, poor fit]",–
Cc1ccc(N(CC(=O)NC(C)c2ccccc2)S(=O)(=O)c2c(C)noc2C)cc1 (stereo unspecified),"inconclusive: 15.8 µM [inhibitor, single point]",–
CC(=O)OC[C@H]1O[C@@H](ON=CC[C@@H]2C=C[C@@H](OC(C)=O)[C@@H](COC(C)=O)O2)[C@@H](OC(C)=O)[C@@H](OC(C)=O)[C@@H]1OC(C)=O,–,inactive: -11.8% [at 14.2 µM]
CCOc1ncccc1C(=O)Nc1ccc(Cl)c(S(=O)(=O)N2CCCC2)c1,"inconclusive: 6.31 µM [inhibitor, full curve, poor fit]",–
C=CCN1C[C@@H](C)N([C@H](c2ccc(C(=O)N(CC)CC)cc2)c2cccc(OC)c2)C[C@@H]1C,active: 15.8 µM,–
CCCCc1noc2c1/C(=N\O)CC(c1ccccc1)C2 (stereo unspecified),"inconclusive: 0.708 µM [activator, full curve, poor fit]",–
Cc1cccc(Cn2nc(C)cc2NC(=O)Cn2cc([N+](=O)[O-])cn2)c1,"inconclusive: 7.94 µM [inhibitor, partial curve, poor fit]",–
O=C(Cn1nc(-c2ccccc2F)ccc1=O)Nc1ccc(S(=O)(=O)N2CCCCCC2)cc1,"inconclusive: 7.08 µM [inhibitor, partial curve, poor fit]",–
COc1ccc([N+](=O)[O-])cc1NCc1ccccc1,–,inactive: 22.9%
CCn1cc(CN2CCC(C(=O)Nc3ccc(Oc4ccccc4F)cc3)CC2)c(C)n1,"inconclusive: 35.5 µM [inhibitor, single point]",–
OCC1(Cc2cccc(F)c2)CCN(Cc2ccc3cccc(F)c3n2)CC1,"inconclusive: 35.5 µM [inhibitor, single point]",–
CCOc1ccccc1C1c2[nH]c3ccccc3c2C[C@H]2C(=O)N(C3CCN(Cc4ccccc4)CC3)CC(=O)N12 (stereo partly specified),active: 20 µM,–
COc1ccc(-n2ccnc2SCC(=O)Nc2ccc(OC)cc2OC)cc1,"inconclusive: 10 µM [inhibitor, single point]",–
Cc1ccc2occ(CC(=O)Nc3ccc(S(N)(=O)=O)cc3)c2c1,–,inconclusive: 26.9% [activator] [at 46.1 µM]
Cc1cccc(C(=O)Nc2ccc(N3CCN(c4ccc(C(F)(F)F)cn4)CC3)nc2)c1,–,inactive: 6.12%
O=C(Nc1ccc(Cl)cc1)N(C1=NCCC1)c1ccc(OC(F)F)cc1,–,inactive: -8.82%
COc1cc(/C=N/n2cnnc2)ccc1OS(=O)(=O)c1ccccc1[N+](=O)[O-],–,inactive: 6.87%
